Assay results taken from US20100150916A1 (UNIVERSITAET STUTTGART, published 2010).
Results are given in words; binding and its absence hold for the method and conditions named. Some results given as binding are weak or reduced against the parent protein; the word gives no strength.

Protein sequences, listed by entry. Tags and fused reporters are not part of them. Lines headed by an entry give the natural chain unless they say otherwise; changes in a name come on top.
UniProt P19438: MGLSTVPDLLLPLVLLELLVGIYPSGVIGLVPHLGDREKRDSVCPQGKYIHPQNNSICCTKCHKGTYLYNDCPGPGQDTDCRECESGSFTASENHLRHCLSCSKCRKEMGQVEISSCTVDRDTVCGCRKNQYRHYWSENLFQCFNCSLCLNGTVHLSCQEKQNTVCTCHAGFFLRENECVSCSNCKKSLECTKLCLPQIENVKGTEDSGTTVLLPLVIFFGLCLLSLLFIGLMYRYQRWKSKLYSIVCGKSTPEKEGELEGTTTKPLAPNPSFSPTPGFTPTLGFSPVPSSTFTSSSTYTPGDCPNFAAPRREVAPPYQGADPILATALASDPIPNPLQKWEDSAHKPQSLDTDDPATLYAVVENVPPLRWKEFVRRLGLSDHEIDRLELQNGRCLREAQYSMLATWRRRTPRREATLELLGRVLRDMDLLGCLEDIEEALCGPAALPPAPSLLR
UniProt P25445: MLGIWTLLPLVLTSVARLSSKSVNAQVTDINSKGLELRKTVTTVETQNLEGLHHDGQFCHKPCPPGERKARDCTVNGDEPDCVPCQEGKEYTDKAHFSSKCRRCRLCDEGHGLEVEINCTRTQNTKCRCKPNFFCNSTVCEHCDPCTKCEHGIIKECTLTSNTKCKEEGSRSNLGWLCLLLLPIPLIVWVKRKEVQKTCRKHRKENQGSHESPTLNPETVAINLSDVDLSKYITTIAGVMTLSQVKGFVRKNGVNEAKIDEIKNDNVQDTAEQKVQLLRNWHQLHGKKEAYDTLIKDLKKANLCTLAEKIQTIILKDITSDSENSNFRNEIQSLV

What was measured:
[1] = target: T1, TNFR1-Fas chimeric receptor (extracellular domain of TNFR1 and cytoplasmic domain of death receptor Fas) on mouse embryonic fibroblasts (human) (UniProt P19438+P25445); test: saturation binding curve and Scatchard plot on receptor positive cells
[2] = target: T1, TNFR1-Fas chimeric receptor (extracellular domain of TNFR1 and cytoplasmic domain of death receptor Fas) on mouse embryonic fibroblasts (human); test: indirect immunofluorescence flow cytometry, FITC-labelled His-specific detection antibody

B1: IZI-06.1 Fab (Fab, V domains shown)
VH: QVQLVQSGAEVKKPGSSVKVSCKASGYTFTDFYINWVRQAPGQGLEWIGEIYPYSGHAYYNEKFKARVTITADKSTSTAYMELSSLRSEDTAVYYCARWDFLDYWGQGTTVTVSS
VL: DIVMTQSPLSLPVTPGEPASISCRSSQSLLHSNGNTYLHWYLQKPGQSPQLLIYTVSNRFSGVPDRFSGSGSGTDFTLKISRVEAEDVGVYYCSQSTHVPYTFGGGTKVEIKR
modifications: 125I-labelled (chloramine T method) in the saturation binding study
notes: Fab expressed in the E. coli periplasm; the pelB leader is removed; also called humanized H398-Fab; Fab IZI-06.1; not shown: CH1 domain of the human immunoglobulin gamma1 heavy chain
binding [1]: binds | binding [2]: binds
